{"source": "the odorant receptor screen of Mainland et al. (2015)", "note": "“And” between values parts separate entries of the source, which are not always exact repeats. Equal values may be shown once. This is one part of the list. Each value is one well over the wells without odorant, computed here; the data are noisy.", "data": [{"test_system": "pseudo clone 1419", "test": "odorant receptor activation (CRE luciferase / Renilla) (fold of no-odor wells); higher = more activation", "details": "100 µM", "values": [{"smiles": "CCCCCCCC=O", "note": "[octyl aldehyde]", "odorant receptor activation": 0.897}, {"smiles": "CCCCCCCCC=O", "note": "[nonyl aldehyde]", "odorant receptor activation": 1.22}, {"smiles": "CCCC(=O)O", "note": "[butyric acid]", "odorant receptor activation": 0.279}, {"smiles": "C=C(C)C1CC=CCC1", "note": "(stereo not drawn) [r-limonene]", "odorant receptor activation": "1.3 and 1.02"}, {"smiles": "C=CCc1ccc(OC(C)=O)c(OC)c1", "note": "[eugenol acetate]", "odorant receptor activation": 1.46}, {"smiles": "COC(=O)c1ccccc1", "note": "[methyl benzoate]", "odorant receptor activation": 1}, {"smiles": "CC(=O)C(C)=O", "note": "[diacetyl]", "odorant receptor activation": 1.25}, {"smiles": "COc1cc(C=O)ccc1O", "note": "[vanillin]", "odorant receptor activation": 1.33}, {"smiles": "O=C1CCCCCCCCCCCCCCO1", "note": "[pentadecalactone]", "odorant receptor activation": 1.6}, {"smiles": "CC(=O)OC1CC2CCC1(C)C2(C)C", "note": "(stereo not drawn) [isobornyl acetate]", "odorant receptor activation": 0.869}, {"smiles": "c1cnccn1", "note": "[pyrazine]", "odorant receptor activation": 1.46}, {"smiles": "CC1=CCC(C(C)(C)O)CC1", "note": "(stereo not drawn) [terpineol]", "odorant receptor activation": 1.18}, {"smiles": "CC(C)CC(=O)O", "note": "[isovaleric acid]", "odorant receptor activation": 1.07}, {"smiles": "c1ccc(Oc2ccccc2)cc1", "note": "[diphenyl ether]", "odorant receptor activation": 1.1}, {"smiles": "CCCCCCCOC(C)=O", "note": "[heptyl acetate]", "odorant receptor activation": 0.996}, {"smiles": "O=C1CCCCCCCCCCCC(=O)OCCO1", "note": "[ethylene brassylate]", "odorant receptor activation": 1.56}, {"smiles": "CC1=NC(C)SC1C", "note": "(stereo not drawn)", "odorant receptor activation": 1.42}, {"smiles": "C=CCSCC=C", "note": "[diallyl sulfide]", "odorant receptor activation": 0.973}, {"smiles": "CCCCCCCCCC=O", "note": "[decyl aldehyde]", "odorant receptor activation": 1.36}, {"smiles": "COc1cc(C)ccc1O", "note": "[2-methoxy-4-methylphenol]", "odorant receptor activation": 1.21}, {"smiles": "CC(C)C(=O)O", "note": "[isobutyric acid]", "odorant receptor activation": 0.705}, {"smiles": "CCCCCC(C)=O", "note": "[2-heptanone]", "odorant receptor activation": 1.17}, {"smiles": "CC12CCC(CC1)C(C)(C)O2", "note": "[cineole]", "odorant receptor activation": 0.233}, {"smiles": "CCCCCC(=O)O", "note": "[caproic acid]", "odorant receptor activation": 0.241}, {"smiles": "C=CCc1ccc(OC)c(OC)c1", "note": "[eugenol methyl ether]", "odorant receptor activation": 1.77}, {"smiles": "C=C(C)C1CC=C(C)C(=O)C1", "note": "(stereo not drawn) [r-carvone]", "odorant receptor activation": 1.32}, {"smiles": "CCC1(O)C2(C)CCC(C2)C1(C)C", "note": "(stereo not drawn) [2-ethylfenchol]", "odorant receptor activation": 0.746}, {"smiles": "CC1CCC(C(C)C)C(O)C1", "note": "(single isomer, unassigned; (-)) [(-)-menthol]", "odorant receptor activation": 0.87}]}]}
